The list shows a part of the results.
Columns and labels:
Assay in all cases: log2 fold change, soluble protein after heating vs DMSO (PISA); higher = thermal stabilisation; K562 lysate, 10 uM; active = over 0.2 and 3.5 SD of the protein, either way, in both replicates (recomputed)
[1] = compound: CS(=O)(=O)CCNCc1ccc(-c2ccc3ncnc(Nc4ccc(OCc5cccc(F)c5)c(Cl)c4)c3c2)o1 [lapatinib]
Method in brief: (§1)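 Soluble protein was defined as the supernatant remaining after 21,000xg for 90 min, following pooling of heated aliquots and adjustment to 0.5% NP-40 at 4°C. Before that, crude K562 extract at 1 mg/mL protein in PBS pH 7.4 with 1 mM MgCl2 was treated with 10 μM compound for 30 min and heated for 3 min across 48°C-58°C. Quantification used TMTpro 16plex LC-MS/MS with channel sums equalised, and values are log-two fold changes in thermal stability relative to solvent controls from duplicates.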

The chains behind the UniProt entries cited, without tags or fusion partners. Where a name states a change or a piece, a line headed by the entry shows the natural chain unless it says otherwise.
UniProt O75955: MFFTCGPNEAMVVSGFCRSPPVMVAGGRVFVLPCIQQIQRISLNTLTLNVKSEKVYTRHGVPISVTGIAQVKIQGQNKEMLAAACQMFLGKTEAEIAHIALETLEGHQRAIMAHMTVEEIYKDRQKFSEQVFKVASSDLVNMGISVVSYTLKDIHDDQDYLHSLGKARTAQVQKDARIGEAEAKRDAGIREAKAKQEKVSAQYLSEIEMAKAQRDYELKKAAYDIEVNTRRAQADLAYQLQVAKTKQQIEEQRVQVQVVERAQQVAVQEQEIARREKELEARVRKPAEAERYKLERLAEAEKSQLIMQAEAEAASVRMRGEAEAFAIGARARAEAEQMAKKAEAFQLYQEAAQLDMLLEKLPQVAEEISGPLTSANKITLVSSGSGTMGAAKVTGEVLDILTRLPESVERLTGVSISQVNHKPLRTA
UniProt Q6P4F2: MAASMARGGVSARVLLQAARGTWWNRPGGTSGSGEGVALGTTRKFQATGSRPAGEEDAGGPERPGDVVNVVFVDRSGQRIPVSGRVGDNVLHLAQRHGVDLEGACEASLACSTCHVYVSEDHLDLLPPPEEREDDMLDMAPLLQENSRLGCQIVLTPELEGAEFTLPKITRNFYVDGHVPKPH
UniProt Q96RU3: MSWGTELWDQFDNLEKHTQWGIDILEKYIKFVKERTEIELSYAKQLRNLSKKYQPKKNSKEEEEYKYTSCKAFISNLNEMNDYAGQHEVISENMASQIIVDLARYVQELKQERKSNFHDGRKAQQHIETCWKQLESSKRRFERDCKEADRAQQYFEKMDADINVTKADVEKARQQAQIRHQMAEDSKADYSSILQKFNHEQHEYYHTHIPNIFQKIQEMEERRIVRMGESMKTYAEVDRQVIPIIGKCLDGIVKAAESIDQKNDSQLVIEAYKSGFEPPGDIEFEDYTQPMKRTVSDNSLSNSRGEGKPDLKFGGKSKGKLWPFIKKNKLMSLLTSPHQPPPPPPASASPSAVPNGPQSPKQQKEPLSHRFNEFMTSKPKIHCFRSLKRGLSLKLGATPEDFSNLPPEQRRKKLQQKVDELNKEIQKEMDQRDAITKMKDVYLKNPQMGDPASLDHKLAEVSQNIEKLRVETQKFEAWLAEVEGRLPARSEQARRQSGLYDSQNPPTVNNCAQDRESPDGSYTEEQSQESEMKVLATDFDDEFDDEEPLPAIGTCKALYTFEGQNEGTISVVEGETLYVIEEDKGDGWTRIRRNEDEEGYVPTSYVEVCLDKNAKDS
UniProt Q96CD0: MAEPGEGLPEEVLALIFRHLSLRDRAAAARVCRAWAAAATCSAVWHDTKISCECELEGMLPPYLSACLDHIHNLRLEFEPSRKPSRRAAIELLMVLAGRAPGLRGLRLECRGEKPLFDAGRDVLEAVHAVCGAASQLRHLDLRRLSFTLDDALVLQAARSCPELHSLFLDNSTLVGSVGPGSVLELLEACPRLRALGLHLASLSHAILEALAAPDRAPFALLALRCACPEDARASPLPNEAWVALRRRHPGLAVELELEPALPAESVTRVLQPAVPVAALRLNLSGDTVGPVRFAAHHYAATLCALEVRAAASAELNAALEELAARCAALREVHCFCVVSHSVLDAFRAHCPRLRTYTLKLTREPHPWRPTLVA
UniProt Q14318: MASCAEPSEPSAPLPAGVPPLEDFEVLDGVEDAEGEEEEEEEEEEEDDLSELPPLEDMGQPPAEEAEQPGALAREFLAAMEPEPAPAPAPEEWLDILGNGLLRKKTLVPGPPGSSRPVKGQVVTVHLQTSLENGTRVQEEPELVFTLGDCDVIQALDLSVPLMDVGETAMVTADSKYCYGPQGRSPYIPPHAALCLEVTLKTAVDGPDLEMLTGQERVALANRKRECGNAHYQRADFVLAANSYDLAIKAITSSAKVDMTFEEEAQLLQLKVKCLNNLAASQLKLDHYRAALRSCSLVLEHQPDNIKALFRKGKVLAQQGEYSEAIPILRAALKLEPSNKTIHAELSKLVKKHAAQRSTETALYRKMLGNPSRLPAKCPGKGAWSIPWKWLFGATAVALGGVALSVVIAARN
UniProt Q9Y3I1: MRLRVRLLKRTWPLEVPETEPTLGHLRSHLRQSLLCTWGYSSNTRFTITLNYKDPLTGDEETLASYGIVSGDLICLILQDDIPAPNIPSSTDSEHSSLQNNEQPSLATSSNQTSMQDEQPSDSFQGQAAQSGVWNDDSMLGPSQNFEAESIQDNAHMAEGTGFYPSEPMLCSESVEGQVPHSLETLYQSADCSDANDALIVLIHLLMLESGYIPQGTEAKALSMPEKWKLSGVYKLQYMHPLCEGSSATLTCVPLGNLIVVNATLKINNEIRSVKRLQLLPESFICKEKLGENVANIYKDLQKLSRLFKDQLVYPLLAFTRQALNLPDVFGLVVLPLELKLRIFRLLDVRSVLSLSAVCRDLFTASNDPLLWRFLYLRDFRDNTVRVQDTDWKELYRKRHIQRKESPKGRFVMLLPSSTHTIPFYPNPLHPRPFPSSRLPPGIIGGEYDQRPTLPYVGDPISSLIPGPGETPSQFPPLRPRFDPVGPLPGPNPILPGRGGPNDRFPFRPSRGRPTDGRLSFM
UniProt Q8TB52: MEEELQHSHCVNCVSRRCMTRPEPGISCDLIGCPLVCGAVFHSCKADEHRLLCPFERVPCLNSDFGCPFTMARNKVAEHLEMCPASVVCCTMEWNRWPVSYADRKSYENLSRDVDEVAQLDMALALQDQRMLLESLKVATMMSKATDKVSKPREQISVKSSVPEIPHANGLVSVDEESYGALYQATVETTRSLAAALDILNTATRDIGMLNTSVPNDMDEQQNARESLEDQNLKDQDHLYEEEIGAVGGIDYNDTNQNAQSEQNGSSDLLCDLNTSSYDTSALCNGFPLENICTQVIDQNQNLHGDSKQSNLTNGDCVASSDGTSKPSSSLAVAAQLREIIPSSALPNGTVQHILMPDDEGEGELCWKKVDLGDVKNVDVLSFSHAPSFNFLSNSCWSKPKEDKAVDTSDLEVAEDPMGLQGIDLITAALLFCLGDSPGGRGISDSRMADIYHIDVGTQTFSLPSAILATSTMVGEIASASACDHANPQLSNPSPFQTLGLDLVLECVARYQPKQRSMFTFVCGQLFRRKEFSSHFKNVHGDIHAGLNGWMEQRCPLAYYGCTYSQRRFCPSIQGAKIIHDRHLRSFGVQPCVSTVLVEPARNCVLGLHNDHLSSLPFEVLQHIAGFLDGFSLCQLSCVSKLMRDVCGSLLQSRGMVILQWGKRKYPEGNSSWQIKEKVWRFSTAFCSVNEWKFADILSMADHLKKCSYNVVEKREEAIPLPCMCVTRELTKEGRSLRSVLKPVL
UniProt P12318: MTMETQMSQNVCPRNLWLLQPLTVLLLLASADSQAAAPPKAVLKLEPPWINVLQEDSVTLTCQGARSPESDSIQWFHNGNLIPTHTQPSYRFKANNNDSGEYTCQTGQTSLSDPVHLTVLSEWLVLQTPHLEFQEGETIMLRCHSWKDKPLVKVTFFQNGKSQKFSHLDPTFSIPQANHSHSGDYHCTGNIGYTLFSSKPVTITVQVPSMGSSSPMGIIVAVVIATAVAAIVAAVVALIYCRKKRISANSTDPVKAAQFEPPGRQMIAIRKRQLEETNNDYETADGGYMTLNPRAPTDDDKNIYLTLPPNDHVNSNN
UniProt Q6PIJ6: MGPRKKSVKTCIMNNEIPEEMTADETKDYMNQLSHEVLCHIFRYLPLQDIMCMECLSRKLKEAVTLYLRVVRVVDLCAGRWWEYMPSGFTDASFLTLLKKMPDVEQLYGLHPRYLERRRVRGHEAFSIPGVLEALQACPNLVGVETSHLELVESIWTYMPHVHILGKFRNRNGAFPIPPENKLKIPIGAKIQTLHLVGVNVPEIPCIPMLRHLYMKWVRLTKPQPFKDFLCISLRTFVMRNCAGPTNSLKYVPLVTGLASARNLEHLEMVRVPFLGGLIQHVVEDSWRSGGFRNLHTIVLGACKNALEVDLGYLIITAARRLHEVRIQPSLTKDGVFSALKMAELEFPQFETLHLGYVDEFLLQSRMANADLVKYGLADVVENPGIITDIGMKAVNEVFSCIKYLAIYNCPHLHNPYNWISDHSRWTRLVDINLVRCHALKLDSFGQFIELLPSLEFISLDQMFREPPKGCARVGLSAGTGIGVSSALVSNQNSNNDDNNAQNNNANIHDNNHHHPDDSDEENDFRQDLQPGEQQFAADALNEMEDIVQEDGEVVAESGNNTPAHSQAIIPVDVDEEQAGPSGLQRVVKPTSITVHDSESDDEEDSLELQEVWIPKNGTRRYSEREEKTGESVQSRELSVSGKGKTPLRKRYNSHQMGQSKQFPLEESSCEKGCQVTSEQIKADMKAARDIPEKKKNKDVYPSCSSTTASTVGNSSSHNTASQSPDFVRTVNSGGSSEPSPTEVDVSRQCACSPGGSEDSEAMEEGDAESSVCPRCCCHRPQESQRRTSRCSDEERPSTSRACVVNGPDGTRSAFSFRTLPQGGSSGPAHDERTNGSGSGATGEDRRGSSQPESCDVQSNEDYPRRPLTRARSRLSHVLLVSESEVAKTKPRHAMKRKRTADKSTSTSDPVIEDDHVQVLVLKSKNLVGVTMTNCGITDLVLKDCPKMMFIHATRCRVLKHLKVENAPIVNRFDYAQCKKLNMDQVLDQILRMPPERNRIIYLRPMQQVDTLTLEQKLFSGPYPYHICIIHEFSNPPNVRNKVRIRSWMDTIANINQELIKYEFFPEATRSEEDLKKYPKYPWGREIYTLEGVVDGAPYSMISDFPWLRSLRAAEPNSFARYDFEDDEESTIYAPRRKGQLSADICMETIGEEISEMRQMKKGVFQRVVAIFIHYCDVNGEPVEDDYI
UniProt P22087: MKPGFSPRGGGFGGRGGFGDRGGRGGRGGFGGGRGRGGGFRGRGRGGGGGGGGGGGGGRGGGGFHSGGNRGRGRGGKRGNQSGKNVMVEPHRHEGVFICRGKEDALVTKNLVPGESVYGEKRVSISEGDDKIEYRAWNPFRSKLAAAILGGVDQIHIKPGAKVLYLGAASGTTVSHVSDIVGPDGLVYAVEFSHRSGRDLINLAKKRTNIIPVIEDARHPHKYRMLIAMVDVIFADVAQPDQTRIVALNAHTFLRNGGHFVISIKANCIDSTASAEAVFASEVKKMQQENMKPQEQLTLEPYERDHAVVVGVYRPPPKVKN
UniProt Q52LJ0: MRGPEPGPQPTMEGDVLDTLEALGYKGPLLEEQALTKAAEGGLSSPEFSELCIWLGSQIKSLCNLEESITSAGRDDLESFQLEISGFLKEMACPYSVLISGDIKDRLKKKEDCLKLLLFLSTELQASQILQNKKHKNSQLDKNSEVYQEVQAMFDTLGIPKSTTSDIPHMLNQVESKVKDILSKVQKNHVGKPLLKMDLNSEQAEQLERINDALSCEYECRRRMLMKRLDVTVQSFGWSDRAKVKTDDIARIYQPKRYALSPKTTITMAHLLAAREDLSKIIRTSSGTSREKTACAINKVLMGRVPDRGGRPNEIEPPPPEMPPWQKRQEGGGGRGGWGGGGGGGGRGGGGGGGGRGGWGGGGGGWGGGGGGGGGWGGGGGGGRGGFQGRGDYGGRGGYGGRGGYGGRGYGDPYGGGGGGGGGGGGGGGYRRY
UniProt P37268: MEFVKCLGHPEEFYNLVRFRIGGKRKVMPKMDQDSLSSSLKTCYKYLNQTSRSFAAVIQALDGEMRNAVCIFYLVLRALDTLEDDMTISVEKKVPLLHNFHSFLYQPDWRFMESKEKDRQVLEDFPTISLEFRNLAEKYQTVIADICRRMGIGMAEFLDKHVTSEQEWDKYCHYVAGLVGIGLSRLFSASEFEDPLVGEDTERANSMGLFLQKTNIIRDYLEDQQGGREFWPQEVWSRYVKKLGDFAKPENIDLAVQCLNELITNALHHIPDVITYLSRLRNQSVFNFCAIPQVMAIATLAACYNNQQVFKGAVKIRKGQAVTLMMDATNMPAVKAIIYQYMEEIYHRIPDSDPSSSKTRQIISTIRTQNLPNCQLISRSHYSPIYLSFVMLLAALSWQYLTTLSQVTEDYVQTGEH
UniProt P07954: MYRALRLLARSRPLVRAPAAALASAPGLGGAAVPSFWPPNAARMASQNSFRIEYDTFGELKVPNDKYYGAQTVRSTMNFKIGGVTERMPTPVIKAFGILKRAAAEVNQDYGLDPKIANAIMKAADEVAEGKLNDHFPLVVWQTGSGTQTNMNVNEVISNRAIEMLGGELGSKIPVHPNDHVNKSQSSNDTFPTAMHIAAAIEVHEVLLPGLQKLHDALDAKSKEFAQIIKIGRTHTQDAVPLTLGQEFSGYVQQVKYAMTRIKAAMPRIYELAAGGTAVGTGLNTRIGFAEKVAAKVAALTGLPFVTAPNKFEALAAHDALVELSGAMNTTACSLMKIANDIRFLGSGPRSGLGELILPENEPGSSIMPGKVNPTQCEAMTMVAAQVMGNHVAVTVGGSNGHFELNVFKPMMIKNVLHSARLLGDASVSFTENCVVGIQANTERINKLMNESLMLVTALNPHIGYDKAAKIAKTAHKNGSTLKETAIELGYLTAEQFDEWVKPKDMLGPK

[2] = compound: CS(=O)(=O)N1CCN(Cc2cc3nc(-c4cccc5[nH]ncc45)nc(N4CCOCC4)c3s2)CC1 [pictilisib]
Method in brief: as §1

[3] = compound: C[C@@H](Oc1cc(-c2cnn(C3CCNCC3)c2)cnc1N)c1c(Cl)ccc(F)c1Cl [crizotinib]
Method in brief: as §1

[4] = compound: C[C@H](C1=CC=C(C=C1)C(=O)NC2=C3C=CNC3=NC=C2)N
Method in brief: as §1

[5] = compound: C[C@H](Nc1ncnc2nc[nH]c12)c1cc2cccc(Cl)c2c(=O)n1-c1ccccc1 [duvelisib]
Method in brief: as §1

[6] = compound: Cc1cc(Nc2cc(CN3CCOCC3)c3nc(C)c(Cc4ccc(Cl)cc4F)n3n2)n[nH]1 [gandotinib]
Method in brief: as §1

[7] = compound: Cc1cc(Nc2cc(N3CCN(C)CC3)nc(Sc3ccc(NC(=O)C4CC4)cc3)n2)n[nH]1 [tozasertib]
Method in brief: as §1

[8] = compound: Cc1ccc(-n2nc(C(C)(C)C)cc2NC(=O)Nc2ccc(OCCN3CCOCC3)c3ccccc23)cc1 [doramapimod]
Method in brief: as §1

[9] = compound: Cc1ccc(NC(=O)c2ccc(CN3CC[C@H](N(C)C)C3)c(C(F)(F)F)c2)cc1Nc1nccc(-c2cncnc2)n1 [bafetinib]
Method in brief: as §1

[10] = compound: Cc1cccc(CC(=O)N2CCc3c2ccc(-c2cn(C)c4ncnc(N)c24)c3F)n1
Method in brief: as §1

[11] = compound: Cc1cn(-c2cc(NC(=O)c3ccc(C)c(Nc4nccc(-c5cccnc5)n4)c3)cc(C(F)(F)F)c2)cn1 [nilotinib]
Method in brief: as §1

[12] = compound: Cc1nc(Nc2n[nH]c3c2CN(C(=O)N[C@H](CN(C)C)c2ccccc2)C3(C)C)c2sccc2n1
Method in brief: as §1

[13] = compound: Cc1nc(Nc2ncc(C(=O)Nc3c(C)cccc3Cl)s2)cc(N2CCN(CCO)CC2)n1 [dasatinib]
Method in brief: as §1

[14] = compound: Cc1ncc(-c2ccnc(Nc3ccc(S(C)(=O)=O)cc3)n2)n1C(C)C
Method in brief: as §1

[15] = compound: Cn1cc(-c2ccc3c(c2)CCN3C(=O)Cc2cccc(C(F)(F)F)c2)c2c(N)ncnc21
Method in brief: as §1

[16] = compound: Cn1cc(CNCC2CCN(c3ncc(C(=O)NO)cn3)CC2)c2ccccc21 [quisinostat]
Method in brief: as §1

[17] = compound: Cn1cncc1[C@@](N)(c1ccc(Cl)cc1)c1ccc2c(c1)c(-c1cccc(Cl)c1)cc(=O)n2C [tipifarnib]
Method in brief: as §1

[18] = compound: NC(=O)Nc1cc(-c2cccc(F)c2)sc1C(=O)N[C@H]1CCCNC1
Method in brief: as §1

[19] = compound: NC(=O)c1cnc(N[C@@H]2CCCC[C@@H]2N)nc1Nc1cccc(-n2nccn2)c1
Method in brief: as §1

[20] = compound: NC1(c2ccc(-c3nc4ccn5c(=O)[nH]nc5c4cc3-c3ccccc3)cc2)CCC1
Method in brief: as §1

Measured: log2 fold change

FLOT1 (UniProt O75955)
inactive: [1] -0.046 | [2] -0.018 | [3] -0.007 | [4] 0.021 | [5] 0.018 | [6] -0.025 | [7] -0.011 | [8] 0.003 | [9] 0.002 | [10] 0.007 | [11] 0.034 | [12] -0.034 | [13] 0.002 | [14] -0.008 | [15] -0.003 | [16] 0.018 | [17] -0.025 | [18] 0.028 | [19] -0.01 | [20] 0.016

FANCD2 isoform 1 (UniProt Q9BXW9)
inactive: [1] -0.092 | [2] -0.037 | [3] -0.221 | [4] -0.086 | [5] -0.032 | [6] 0.132 | [7] -0.069 | [8] -0.023 | [9] -0.079 | [11] 0.015 | [12] -0.002 | [13] -0.066 | [14] 0.048 | [15] 0 | [17] -0.037 | [18] 0.018 | [19] 0.033 | [20] -0.124
active: [10] 0.279 | [16] -0.238

FDX2 (UniProt Q6P4F2)
inactive: [1] 0.047 | [2] -0.169 | [3] 0.057 | [4] -0.142 | [5] 0.188 | [6] 0.014 | [7] -0.15 | [8] 0.014 | [9] 0 | [10] 0.112 | [11] 0.135 | [12] -0.025 | [13] 0.058 | [14] -0.067 | [15] -0.006 | [16] -0.068 | [17] 0.096 | [18] 0.05 | [19] -0.068 | [20] 0.052

FNBP1 (UniProt Q96RU3)
inactive: [1] -0.028 | [2] 0.078 | [3] -0.027 | [4] -0.048 | [5] -0.035 | [6] -0.041 | [7] 0.164 | [8] 0.011 | [9] -0.01 | [10] 0.055 | [11] -0.054 | [12] 0.075 | [13] 0.029 | [14] 0.096 | [15] 0.051 | [16] -0.009 | [17] -0.029 | [18] 0.054 | [19] 0.04 | [20] -0.074

FBXL8 (UniProt Q96CD0)
inactive: [1] -0.024 | [2] 0.008 | [3] -0.05 | [4] -0.043 | [5] -0.016 | [6] 0.115 | [7] 0.009 | [8] -0.005 | [9] -0.134 | [10] 0.021 | [11] 0.11 | [12] -0.027 | [13] -0.059 | [14] -0.069 | [15] -0.028 | [16] 0.059 | [17] -0.004 | [18] -0.001 | [19] 0.014 | [20] -0.059

FKBP8 isoform 2 (UniProt Q14318)
inactive: [1] -0.041 | [2] -0.036 | [3] -0.12 | [4] -0.035 | [5] 0.044 | [6] -0.021 | [7] -0.024 | [8] 0.064 | [9] -0.07 | [10] 0.013 | [11] -0.019 | [12] -0.055 | [13] -0.056 | [14] 0.014 | [15] 0.011 | [16] -0.21 | [17] -0.005 | [18] 0.067 | [19] 0.02 | [20] 0.005

FAU (UniProt E9PR30)
inactive: [1] -0.018 | [2] 0.02 | [3] -0.055 | [5] 0.047 | [6] -0.105 | [7] -0.027 | [8] 0.071 | [9] -0.019 | [10] -0.121 | [11] 0.006 | [12] 0.001 | [13] -0.018 | [14] 0.005 | [15] 0.052 | [16] 0.002 | [17] 0.046 | [18] -0.055 | [19] 0 | [20] -0.058
active: [4] 0.293

FBXO7 (UniProt Q9Y3I1)
inactive: [1] -0.006 | [2] -0.109 | [3] 0.045 | [4] -0.008 | [5] -0.041 | [6] 0.03 | [7] -0.06 | [8] 0.037 | [9] -0.015 | [10] 0.015 | [11] -0.022 | [12] 0.002 | [13] -0.007 | [14] 0.026 | [15] 0 | [16] 0.01 | [17] 0.053 | [18] -0.012 | [19] 0.014 | [20] 0.008

Two entries drawn at random from the list so far:
FBXL8 (UniProt Q96CD0)
inactive: [1] -0.024 | [2] 0.008 | [3] -0.05 | [4] -0.043 | [5] -0.016 | [6] 0.115 | [7] 0.009 | [8] -0.005 | [9] -0.134 | [10] 0.021 | [11] 0.11 | [12] -0.027 | [13] -0.059 | [14] -0.069 | [15] -0.028 | [16] 0.059 | [17] -0.004 | [18] -0.001 | [19] 0.014 | [20] -0.059

FBXO7 (UniProt Q9Y3I1)
inactive: [1] -0.006 | [2] -0.109 | [3] 0.045 | [4] -0.008 | [5] -0.041 | [6] 0.03 | [7] -0.06 | [8] 0.037 | [9] -0.015 | [10] 0.015 | [11] -0.022 | [12] 0.002 | [13] -0.007 | [14] 0.026 | [15] 0 | [16] 0.01 | [17] 0.053 | [18] -0.012 | [19] 0.014 | [20] 0.008

Next entries:

FBXO30 (UniProt Q8TB52)
inactive: [1] -0.015 | [2] -0.03 | [3] -0.013 | [4] 0.187 | [5] 0.024 | [6] -0.072 | [7] -0.021 | [8] 0.045 | [9] 0.032 | [10] -0.117 | [11] 0.015 | [12] -0.032 | [13] 0.012 | [14] 0.067 | [15] 0.02 | [16] 0.001 | [17] 0.012 | [18] -0.008 | [19] -0.017 | [20] 0.005

FCGR2A (UniProt P12318)
inactive: [1] 0.004 | [2] -0.004 | [3] 0.039 | [4] -0.038 | [5] 0.01 | [6] 0.046 | [7] 0.019 | [8] -0.011 | [9] -0.014 | [10] 0.017 | [11] 0.035 | [12] -0.044 | [13] -0.005 | [14] 0.015 | [15] 0.033 | [16] -0.043 | [17] 0.035 | [18] -0.002 | [19] 0.006 | [20] 0.038

FBXO38 (UniProt Q6PIJ6)
inactive: [1] 0.039 | [2] -0.052 | [3] 0.038 | [4] 0.018 | [5] 0.01 | [6] -0.037 | [7] 0.119 | [8] 0.05 | [9] -0.316 | [10] -0.016 | [11] 0.157 | [12] -0.203 | [13] -0.03 | [14] -0.125 | [15] -0.069 | [16] -0.028 | [17] -0.071 | [18] 0.026 | [19] -0.031 | [20] 0.012

FBL (UniProt P22087)
inactive: [1] -0.047 | [2] -0.017 | [3] -0.011 | [4] 0.06 | [5] 0.05 | [6] -0.048 | [7] 0.015 | [8] 0.003 | [9] -0.083 | [10] 0.041 | [11] 0 | [12] -0.005 | [13] -0.023 | [14] -0.015 | [15] 0.053 | [16] -0.005 | [17] 0.009 | [18] -0.016 | [19] 0.009 | [20] -0.05

FAM98B (UniProt Q52LJ0)
inactive: [1] 0.016 | [2] 0.011 | [3] -0.058 | [4] 0.048 | [5] -0.002 | [6] -0.025 | [7] 0.016 | [8] 0.075 | [9] 0.07 | [10] 0.02 | [11] 0.02 | [12] -0.052 | [13] 0.01 | [14] 0.017 | [15] -0.022 | [16] -0.109 | [17] -0.058 | [18] -0.031 | [19] 0.034 | [20] -0.005

FDFT1 (UniProt P37268)
inactive: [1] -0.037 | [2] -0.018 | [3] 0.062 | [4] -0.045 | [5] 0.19 | [6] 0.207 | [7] -0.004 | [8] 0 | [9] 0.018 | [10] 0.01 | [11] 0.032 | [12] -0.048 | [13] -0.012 | [14] -0.037 | [15] -0.008 | [16] -0.014 | [17] -0.053 | [18] 0.005 | [19] 0.042 | [20] -0.025

FOPNL (UniProt Q96NB1)
inactive: [1] 0.107 | [2] -0.077 | [3] 0.027 | [4] 0.023 | [5] 0.083 | [6] 0.013 | [7] 0.055 | [8] -0.073 | [9] -0.07 | [10] -0.084 | [11] -0.008 | [12] 0.002 | [13] -0.091 | [14] -0.046 | [15] 0.404 | [16] 0.031 | [17] -0.034 | [18] 0.005 | [19] 0.084

FH (UniProt P07954)
inactive: [1] -0.009 | [2] -0.001 | [3] 0.016 | [4] 0.049 | [5] 0.001 | [6] -0.039 | [7] -0.001 | [8] -0.003 | [9] 0.014 | [10] -0.041 | [11] -0.009 | [12] -0.019 | [13] -0.011 | [14] -0.001 | [15] 0.008 | [16] 0.031 | [17] 0.038 | [18] 0 | [19] -0.001 | [20] 0.01
